Source: the supplement of paper PMC10849652
The list shows a part of the results.

By UniProt entry, the sequences of proteins in these tests, tags left out. Where a name states a change or a piece, a line headed by the entry shows the natural chain unless it says otherwise.
UniProt Q9NXF7, whole entry, looked up: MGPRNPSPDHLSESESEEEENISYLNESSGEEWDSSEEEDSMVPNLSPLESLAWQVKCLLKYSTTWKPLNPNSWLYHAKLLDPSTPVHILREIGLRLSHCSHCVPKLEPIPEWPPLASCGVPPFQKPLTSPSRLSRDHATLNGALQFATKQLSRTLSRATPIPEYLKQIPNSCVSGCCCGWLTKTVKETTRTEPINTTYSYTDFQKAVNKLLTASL
UniProt P33240: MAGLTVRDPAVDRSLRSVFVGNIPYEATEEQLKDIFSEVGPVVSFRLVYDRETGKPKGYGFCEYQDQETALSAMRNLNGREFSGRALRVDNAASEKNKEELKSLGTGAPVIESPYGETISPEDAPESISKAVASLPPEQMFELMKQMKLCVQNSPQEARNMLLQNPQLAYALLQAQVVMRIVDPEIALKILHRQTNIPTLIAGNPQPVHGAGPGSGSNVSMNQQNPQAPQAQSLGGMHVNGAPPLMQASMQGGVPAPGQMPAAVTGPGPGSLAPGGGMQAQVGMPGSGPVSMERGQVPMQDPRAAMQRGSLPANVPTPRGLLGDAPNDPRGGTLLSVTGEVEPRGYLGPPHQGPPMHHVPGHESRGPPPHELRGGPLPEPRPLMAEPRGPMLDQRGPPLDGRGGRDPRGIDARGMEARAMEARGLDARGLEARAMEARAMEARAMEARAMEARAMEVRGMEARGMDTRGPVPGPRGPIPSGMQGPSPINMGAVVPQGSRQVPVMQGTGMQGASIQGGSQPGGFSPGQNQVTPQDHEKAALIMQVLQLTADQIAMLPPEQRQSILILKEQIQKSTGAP
UniProt Q9H773: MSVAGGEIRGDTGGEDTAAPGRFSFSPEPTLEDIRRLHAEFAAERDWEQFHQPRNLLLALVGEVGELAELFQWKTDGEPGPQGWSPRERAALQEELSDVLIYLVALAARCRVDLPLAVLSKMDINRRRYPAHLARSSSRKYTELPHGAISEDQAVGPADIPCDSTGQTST
UniProt P98082: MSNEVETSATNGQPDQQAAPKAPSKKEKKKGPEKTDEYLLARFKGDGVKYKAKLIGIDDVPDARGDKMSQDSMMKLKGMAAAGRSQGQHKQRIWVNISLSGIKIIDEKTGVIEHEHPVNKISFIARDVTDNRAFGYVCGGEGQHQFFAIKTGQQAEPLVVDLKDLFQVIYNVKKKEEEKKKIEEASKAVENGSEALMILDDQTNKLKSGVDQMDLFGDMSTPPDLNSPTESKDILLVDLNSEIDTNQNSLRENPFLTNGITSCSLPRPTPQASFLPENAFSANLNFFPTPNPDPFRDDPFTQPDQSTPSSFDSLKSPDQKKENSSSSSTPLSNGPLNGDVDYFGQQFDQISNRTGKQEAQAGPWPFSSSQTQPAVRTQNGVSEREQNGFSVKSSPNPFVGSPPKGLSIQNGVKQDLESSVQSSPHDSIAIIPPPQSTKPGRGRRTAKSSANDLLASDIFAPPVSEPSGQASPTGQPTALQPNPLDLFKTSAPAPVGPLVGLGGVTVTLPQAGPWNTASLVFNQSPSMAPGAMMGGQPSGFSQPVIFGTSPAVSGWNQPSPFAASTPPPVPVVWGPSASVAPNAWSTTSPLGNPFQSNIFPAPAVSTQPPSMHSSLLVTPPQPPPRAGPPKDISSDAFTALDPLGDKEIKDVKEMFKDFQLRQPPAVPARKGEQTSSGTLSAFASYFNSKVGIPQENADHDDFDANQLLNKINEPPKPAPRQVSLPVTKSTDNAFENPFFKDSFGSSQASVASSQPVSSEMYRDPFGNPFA
UniProt P39880: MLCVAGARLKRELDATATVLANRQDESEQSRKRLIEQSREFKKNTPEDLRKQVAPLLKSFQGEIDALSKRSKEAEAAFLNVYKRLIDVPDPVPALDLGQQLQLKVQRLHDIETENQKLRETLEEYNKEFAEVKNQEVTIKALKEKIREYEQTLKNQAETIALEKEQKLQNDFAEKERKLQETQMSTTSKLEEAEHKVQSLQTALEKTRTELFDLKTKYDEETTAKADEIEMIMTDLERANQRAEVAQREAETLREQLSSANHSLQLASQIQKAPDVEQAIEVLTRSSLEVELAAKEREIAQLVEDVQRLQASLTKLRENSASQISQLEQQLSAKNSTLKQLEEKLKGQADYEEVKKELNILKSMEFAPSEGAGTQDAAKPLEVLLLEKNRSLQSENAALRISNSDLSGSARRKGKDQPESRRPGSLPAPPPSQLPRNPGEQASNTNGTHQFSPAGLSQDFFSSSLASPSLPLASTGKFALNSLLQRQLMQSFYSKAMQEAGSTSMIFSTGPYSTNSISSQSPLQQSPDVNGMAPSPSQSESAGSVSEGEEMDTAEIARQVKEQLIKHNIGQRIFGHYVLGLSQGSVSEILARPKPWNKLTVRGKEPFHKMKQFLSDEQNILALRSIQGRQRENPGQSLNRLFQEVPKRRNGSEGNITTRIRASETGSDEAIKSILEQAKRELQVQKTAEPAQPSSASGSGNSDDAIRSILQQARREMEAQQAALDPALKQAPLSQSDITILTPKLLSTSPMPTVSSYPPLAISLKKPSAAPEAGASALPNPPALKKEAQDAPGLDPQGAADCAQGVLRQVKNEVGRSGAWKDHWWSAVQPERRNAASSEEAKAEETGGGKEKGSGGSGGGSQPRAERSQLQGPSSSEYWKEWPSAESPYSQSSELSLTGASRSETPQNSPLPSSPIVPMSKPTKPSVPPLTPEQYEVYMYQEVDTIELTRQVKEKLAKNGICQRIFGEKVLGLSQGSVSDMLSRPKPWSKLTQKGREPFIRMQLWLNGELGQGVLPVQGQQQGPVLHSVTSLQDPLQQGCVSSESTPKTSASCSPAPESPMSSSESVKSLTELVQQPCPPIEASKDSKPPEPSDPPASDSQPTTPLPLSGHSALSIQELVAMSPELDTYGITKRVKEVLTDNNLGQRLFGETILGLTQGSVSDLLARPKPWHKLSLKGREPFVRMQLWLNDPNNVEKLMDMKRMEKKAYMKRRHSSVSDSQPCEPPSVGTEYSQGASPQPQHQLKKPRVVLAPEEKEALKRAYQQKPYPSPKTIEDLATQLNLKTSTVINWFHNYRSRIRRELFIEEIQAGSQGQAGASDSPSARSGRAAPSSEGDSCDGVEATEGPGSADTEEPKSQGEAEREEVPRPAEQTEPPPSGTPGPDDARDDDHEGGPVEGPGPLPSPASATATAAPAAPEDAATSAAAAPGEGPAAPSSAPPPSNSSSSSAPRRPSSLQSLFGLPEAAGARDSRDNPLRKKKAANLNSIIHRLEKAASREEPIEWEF
UniProt Q7Z7A3: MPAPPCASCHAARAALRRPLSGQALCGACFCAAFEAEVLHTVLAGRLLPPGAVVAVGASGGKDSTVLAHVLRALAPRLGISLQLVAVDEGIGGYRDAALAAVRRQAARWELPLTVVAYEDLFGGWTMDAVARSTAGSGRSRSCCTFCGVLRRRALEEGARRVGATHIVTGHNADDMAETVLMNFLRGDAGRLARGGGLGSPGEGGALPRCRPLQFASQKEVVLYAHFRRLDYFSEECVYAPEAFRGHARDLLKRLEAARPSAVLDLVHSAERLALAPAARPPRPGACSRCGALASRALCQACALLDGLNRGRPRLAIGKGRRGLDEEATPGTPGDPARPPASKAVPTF
UniProt Q8WV16: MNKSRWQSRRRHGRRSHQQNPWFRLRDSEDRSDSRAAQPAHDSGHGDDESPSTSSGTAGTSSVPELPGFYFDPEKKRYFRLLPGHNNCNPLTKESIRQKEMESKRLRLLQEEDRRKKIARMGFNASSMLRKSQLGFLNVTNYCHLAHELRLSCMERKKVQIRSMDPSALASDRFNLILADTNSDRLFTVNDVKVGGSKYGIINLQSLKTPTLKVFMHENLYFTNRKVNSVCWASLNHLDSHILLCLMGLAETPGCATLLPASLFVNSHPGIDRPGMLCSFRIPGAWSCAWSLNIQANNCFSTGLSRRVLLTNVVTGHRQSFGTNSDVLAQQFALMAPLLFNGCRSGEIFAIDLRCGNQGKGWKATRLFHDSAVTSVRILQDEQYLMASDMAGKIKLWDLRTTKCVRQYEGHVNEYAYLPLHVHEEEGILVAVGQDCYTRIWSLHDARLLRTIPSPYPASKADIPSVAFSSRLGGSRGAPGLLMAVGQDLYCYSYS
UniProt P00167, whole entry, looked up: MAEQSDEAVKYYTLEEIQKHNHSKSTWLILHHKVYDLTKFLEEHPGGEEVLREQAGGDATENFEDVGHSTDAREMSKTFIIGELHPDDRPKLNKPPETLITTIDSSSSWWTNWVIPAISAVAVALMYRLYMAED
UniProt Q96GG9: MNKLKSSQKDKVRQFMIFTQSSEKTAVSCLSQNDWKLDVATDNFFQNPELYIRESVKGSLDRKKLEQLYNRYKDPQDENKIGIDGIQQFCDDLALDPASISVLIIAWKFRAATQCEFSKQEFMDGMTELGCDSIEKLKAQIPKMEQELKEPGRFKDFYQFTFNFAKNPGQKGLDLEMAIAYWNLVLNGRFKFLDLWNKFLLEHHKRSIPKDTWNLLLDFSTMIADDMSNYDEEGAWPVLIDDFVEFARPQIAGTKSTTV
UniProt Q9Y6A2: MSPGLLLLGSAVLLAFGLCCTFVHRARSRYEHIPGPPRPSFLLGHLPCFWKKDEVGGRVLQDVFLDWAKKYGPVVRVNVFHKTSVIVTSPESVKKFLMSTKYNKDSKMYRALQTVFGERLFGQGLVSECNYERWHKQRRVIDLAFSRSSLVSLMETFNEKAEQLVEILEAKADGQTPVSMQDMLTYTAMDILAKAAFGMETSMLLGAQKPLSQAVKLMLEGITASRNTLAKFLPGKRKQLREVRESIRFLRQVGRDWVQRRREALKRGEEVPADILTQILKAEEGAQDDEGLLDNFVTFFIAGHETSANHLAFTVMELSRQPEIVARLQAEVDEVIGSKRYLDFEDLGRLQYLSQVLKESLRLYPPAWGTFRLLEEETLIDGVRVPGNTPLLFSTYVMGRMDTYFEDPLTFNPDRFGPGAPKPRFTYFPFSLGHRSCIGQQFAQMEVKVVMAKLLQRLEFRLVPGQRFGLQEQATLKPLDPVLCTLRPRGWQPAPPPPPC
UniProt Q8NA75: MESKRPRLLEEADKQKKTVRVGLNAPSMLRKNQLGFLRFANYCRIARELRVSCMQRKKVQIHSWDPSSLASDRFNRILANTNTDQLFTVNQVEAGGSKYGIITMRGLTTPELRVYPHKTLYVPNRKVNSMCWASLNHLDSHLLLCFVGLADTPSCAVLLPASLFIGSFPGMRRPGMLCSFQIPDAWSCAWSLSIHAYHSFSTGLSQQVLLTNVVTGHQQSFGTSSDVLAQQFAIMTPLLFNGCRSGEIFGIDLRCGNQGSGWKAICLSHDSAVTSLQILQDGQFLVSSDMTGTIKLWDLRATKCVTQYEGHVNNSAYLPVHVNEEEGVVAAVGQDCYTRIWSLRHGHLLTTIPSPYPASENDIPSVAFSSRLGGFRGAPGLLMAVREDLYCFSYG
UniProt Q9UBR2: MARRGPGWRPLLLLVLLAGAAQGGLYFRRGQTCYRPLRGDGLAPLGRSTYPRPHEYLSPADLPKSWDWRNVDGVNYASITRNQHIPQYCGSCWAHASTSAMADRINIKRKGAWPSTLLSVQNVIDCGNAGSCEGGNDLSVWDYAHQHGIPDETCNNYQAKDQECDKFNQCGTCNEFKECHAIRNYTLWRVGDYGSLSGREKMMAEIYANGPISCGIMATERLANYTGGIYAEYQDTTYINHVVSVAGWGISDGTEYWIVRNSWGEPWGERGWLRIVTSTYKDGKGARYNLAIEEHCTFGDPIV
UniProt P09668: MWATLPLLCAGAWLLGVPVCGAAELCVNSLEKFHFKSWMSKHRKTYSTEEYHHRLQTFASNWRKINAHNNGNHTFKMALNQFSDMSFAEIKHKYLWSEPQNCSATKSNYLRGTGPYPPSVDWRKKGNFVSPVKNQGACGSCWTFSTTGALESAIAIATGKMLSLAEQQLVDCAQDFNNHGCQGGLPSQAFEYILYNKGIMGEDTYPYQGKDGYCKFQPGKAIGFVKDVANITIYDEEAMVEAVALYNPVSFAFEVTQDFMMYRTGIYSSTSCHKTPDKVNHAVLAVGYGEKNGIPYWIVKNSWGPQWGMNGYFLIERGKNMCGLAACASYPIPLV
UniProt Q9NXE8: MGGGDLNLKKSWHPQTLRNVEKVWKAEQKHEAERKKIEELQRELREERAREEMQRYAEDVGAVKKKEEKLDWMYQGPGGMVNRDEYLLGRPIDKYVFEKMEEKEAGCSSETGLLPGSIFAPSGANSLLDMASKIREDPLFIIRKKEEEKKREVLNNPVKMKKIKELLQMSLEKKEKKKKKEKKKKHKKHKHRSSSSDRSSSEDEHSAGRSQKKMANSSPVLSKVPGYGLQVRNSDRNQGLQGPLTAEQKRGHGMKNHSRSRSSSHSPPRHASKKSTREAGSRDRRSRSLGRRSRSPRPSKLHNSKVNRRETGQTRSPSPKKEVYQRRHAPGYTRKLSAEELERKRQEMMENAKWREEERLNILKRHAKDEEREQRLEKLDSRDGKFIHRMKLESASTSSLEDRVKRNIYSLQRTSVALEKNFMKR

These targets were tested with CN1C2=C(C3=C1C(=O)N(N=C3)CC4=CC(=CC=C4)N)SC(=C2)S(=O)C (assay: log2 fold change, soluble protein after heating vs DMSO (PISA); higher = thermal stabilisation; K562 cells, 10 uM, 30 min; active = over 0.2 and 3.5 SD of the protein, either way, in both replicates (recomputed)).
Summary of the method: (§1)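 Thermal stability values are relative to control samples and come from duplicates. They are expressed as log2 fold changes. For measurement, K562 cells (2×10^6 cells/mL) received 10 μM compound for 30 min, and aliquots were heated for 3 min over 48°C-58°C, pooled, and extracted at 4°C in PBS with 0.5% NP-40. Soluble protein, the supernatant after 21,000xg for 90 min, was quantified by TMTpro 16plex LC-MS/MS with equalised channel sums.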

Row | Target | log2 fold change
1 | CTSC (UniProt P53634) | inactive: -0.015
2 | DAXX (UniProt Q9UER7) | inactive: -0.093
3 | CTNND1 (UniProt O60716) | inactive: 0.227
4 | DCAF16 (UniProt Q9NXF7) | inactive: -0.052
5 | CSTF2 (UniProt P33240) | inactive: -0.085
6 | CTSB (UniProt P07858) | inactive: -0.07
7 | DCTPP1 (UniProt Q9H773) | inactive: -0.048
8 | CYP2S1 isoform 2 (UniProt Q96SQ9) | inactive: -0.057
9 | DAB2 (UniProt P98082) | inactive: 0.032
10 | CYP51A1 (UniProt Q16850) | inactive: 0.072
11 | CTSA (UniProt P10619) | inactive: -0.007
12 | CUX1 isoform 3 (UniProt P39880) | inactive: 0.004

What follows are targets tested with CN1CCC(CNc2ccc3ncc(-c4cccc(OC(F)(F)F)c4)n3n2)CC1 in the same assay as above.
Summary of the method: as §1

Row | Target | log2 fold change
13 | DCTN5 (UniProt Q9BTE1) | inactive: 0.057
14 | CTU1 (UniProt Q7Z7A3) | active: -0.233
15 | DCAF4 (UniProt Q8WV16) | inactive: -0.086
16 | CYB5A (UniProt P00167) | inactive: 0.241
17 | DCUN1D1 (UniProt Q96GG9) | inactive: -0.178
18 | CYP46A1 (UniProt Q9Y6A2) | inactive: -0.236
19 | DCAF6 isoform 3 (UniProt Q58WW2) | inactive: 0.004
20 | CSRP3 (UniProt P50461) | inactive: -0.03
21 | DCAF4L2 (UniProt Q8NA75) | inactive: 0.008
22 | CTR9 (UniProt Q6PD62) | inactive: -0.003
23 | DBNL isoform 3 (UniProt Q9UJU6) | inactive: -0.109
24 | CTSZ (UniProt Q9UBR2) | active: -0.843
25 | DCTN1 isoform 4 (UniProt Q14203) | inactive: -0.096
26 | CTSS (UniProt P25774) | inactive: -0.034
27 | CYBA (UniProt P13498) | inactive: -0.04
28 | CT55 (UniProt Q8WUE5) | inactive: -0.019
29 | DCAF13 (UniProt Q9NV06) | inactive: 0.136
30 | CYB561A3 isoform 2 (UniProt Q8NBI2) | inactive: 0.032

Row | Target | log2 fold change
31 | DBT (UniProt P11182) | inactive: 0.045
32 | CWF19L2 (UniProt Q2TBE0) | inactive: 0.21
33 | DBN1 isoform 3 (UniProt Q16643) | inactive: -0.011
34 | CTSH (UniProt P09668) | active: -0.295
35 | CTSC (UniProt P53634) | active: -0.433
36 | DAXX (UniProt Q9UER7) | inactive: 0.027
37 | CTNND1 (UniProt O60716) | inactive: 0.069
38 | DCAF16 (UniProt Q9NXF7) | inactive: 0.03
39 | CSTF2 (UniProt P33240) | inactive: -0.004
40 | CTSB (UniProt P07858) | active: -0.936
41 | DCTPP1 (UniProt Q9H773) | inactive: 0.201
42 | CWC25 (UniProt Q9NXE8) | inactive: 0.235
43 | CYP2S1 isoform 2 (UniProt Q96SQ9) | inactive: 0.088
44 | DAB2 (UniProt P98082) | inactive: -0.111
45 | CYP51A1 (UniProt Q16850) | active: -0.331
46 | CTSA (UniProt P10619) | active: -1.44
47 | CUX1 isoform 3 (UniProt P39880) | inactive: -0.123
